# Assay results reported in the supplement of paper PMC8728848.
# The other results are listed elsewhere or left out.
# B1: PX9916F-bfa-443-24-443 (Bacteroides fragilis) (protein)
# chain: DIRPVGSVIPQTAEEYRALLARAYLNVPNDRGLACLRSDEMLVNDNEYDRNSYGDIERWNDVSPFPGTSQFTWSNFYNVLFIANQVIESQKEITEGTPEVVNQLVGEAHLLRAYLHFVLVNLHGQPYTKSGALNSKSIPLKLDTDLEKTLGRNTVEEVYTSILSDIEHARELINKEKWETVFSYRFNVLSVDALQSRVSLYMGAWPKCLESAEAVLAKKSVLVDMNETPLALPNHFESVESITALEQVMGSSVNNAVWVPATFLALYQEGDKRLAAYFAAPDENGNRKSSKGGKREFSCTFRVGELYLNAAEAAANMDKLPHARMRLLELMRKRYTPEAYDKKENAVNVMDKNALISEILNERARELAFEGHRWFDLRRTTRPRMVKVLQGKTYILEQDDPRYTIPIPRDAIAANPGLAN
# Key:
# Assay in all cases: glycan array binding signal (z-score within array); higher = stronger binding
# Conditions in all cases: glycan notation: IUPAC condensed, linker removed
# [1] = molecular target: GlcNAc(b1-3)Gal(b1-4)GlcNAc(b1-3)Gal(b1-4)GlcNAc(b1-3)GalNAc
# Procedure, shortened: (§1)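 The Consortium for Functional Glycomics database supplied 3228 glycan arrays, of which those lacking an available protein sequence were dropped. The binding signal, a within-array Z-score, was averaged across arrays of the same protein sequence and across linkers. Negative scores can be read as non-binding.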
# [2] = molecular target: GlcNAc(b1-3)Gal(b1-4)GlcNAc(b1-3)GalNAc
# Procedure, shortened: as §1
# [3] = molecular target: GlcNAc(b1-3)Gal(b1-4)GlcNAc(b1-3)[GlcNAc(b1-3)Gal(b1-4)GlcNAc(b1-3)]GalNAc
# Procedure, shortened: as §1
# [4] = molecular target: GlcNAc(b1-3)Gal(b1-4)GlcNAc(b1-6)[Gal(b1-3)]GalNAc
# Procedure, shortened: as §1
# [5] = molecular target: GlcNAc(b1-3)Gal(b1-4)GlcNAc(b1-6)[GlcNAc(b1-3)Gal(b1-3)]GalNAc
# Procedure, shortened: as §1
# [6] = molecular target: GlcNAc(b1-3)Gal(b1-4)GlcNAc(b1-6)[GlcNAc(b1-3)]Gal(b1-4)GlcNAc
# Procedure, shortened: as §1
# GlcNAc(b1-3)GalNAc = molecular target: GlcNAc(b1-3)GalNAc
# Procedure, shortened: as §1
# GlcNAc(b1-3)Man = molecular target: GlcNAc(b1-3)Man
# Procedure, shortened: as §1
# [7] = molecular target: GlcNAc(b1-3)[GlcNAc(b1-4)][GlcNAc(b1-6)]GlcNAc
# Procedure, shortened: as §1
# [8] = molecular target: GlcNAc(b1-3)[GlcNAc(b1-6)]Gal(b1-4)GlcNAc
# Procedure, shortened: as §1
# [9] = molecular target: GlcNAc(b1-3)[GlcNAc(b1-6)]GalNAc
# Procedure, shortened: as §1
# [10] = molecular target: GlcNAc(b1-4)Gal(b1-4)GlcNAc
# Procedure, shortened: as §1
# GlcNAc(b1-4)GlcNAc = molecular target: GlcNAc(b1-4)GlcNAc
# Procedure, shortened: as §1
# [11] = molecular target: GlcNAc(b1-4)GlcNAc(b1-4)GlcNAc
# Procedure, shortened: as §1
# [12] = molecular target: GlcNAc(b1-4)GlcNAc(b1-4)GlcNAc(b1-4)GlcNAc(b1-4)GlcNAc
# Procedure, shortened: as §1
# [13] = molecular target: GlcNAc(b1-4)GlcNAc(b1-4)GlcNAc(b1-4)GlcNAc(b1-4)GlcNAc(b1-4)GlcNAc
# Procedure, shortened: as §1
# [14] = molecular target: GlcNAc(b1-4)[GlcNAc(b1-6)]GalNAc
# Procedure, shortened: as §1
# [15] = molecular target: GlcNAc(b1-6)Gal(b1-4)GlcNAc
# Procedure, shortened: as §1
# GlcNAc(b1-6)GalNAc = molecular target: GlcNAc(b1-6)GalNAc
# Procedure, shortened: as §1
# [16] = molecular target: GlcNAc6S(b1-3)Gal(b1-4)GlcNAc
# Procedure, shortened: as §1
# Kdn(a2-3)Gal(b1-3)GalNAc = molecular target: Kdn(a2-3)Gal(b1-3)GalNAc
# Procedure, shortened: as §1
# Kdn(a2-3)Gal(b1-3)GlcNAc = molecular target: Kdn(a2-3)Gal(b1-3)GlcNAc
# Procedure, shortened: as §1
# Kdn(a2-3)Gal(b1-4)Glc = molecular target: Kdn(a2-3)Gal(b1-4)Glc
# Procedure, shortened: as §1
# Kdn(a2-3)Gal(b1-4)GlcNAc = molecular target: Kdn(a2-3)Gal(b1-4)GlcNAc
# Procedure, shortened: as §1
# [17] = molecular target: Kdn(a2-3)Gal(b1-4)[Fuc(a1-3)]GlcNAc
# Procedure, shortened: as §1
# Kdn(a2-6)Gal(b1-4)GlcNAc = molecular target: Kdn(a2-6)Gal(b1-4)GlcNAc
# Procedure, shortened: as §1
# [18] = molecular target: Man(a1-2)Man(a1-2)Man(a1-3)Man
# Procedure, shortened: as §1
# [19] = molecular target: Man(a1-2)Man(a1-2)Man(a1-6)[Man(a1-3)]Man
# Procedure, shortened: as §1
# Man(a1-2)Man(a1-3)Man = molecular target: Man(a1-2)Man(a1-3)Man
# Procedure, shortened: as §1
# [20] = molecular target: Man(a1-2)Man(a1-3)[Man(a1-2)Man(a1-6)]Man
# Procedure, shortened: as §1
# [21] = molecular target: Man(a1-2)Man(a1-3)[Man(a1-2)Man(a1-6)]Man(a1-6)[Man(a1-2)Man(a1-2)Man(a1-3)]Man
# Procedure, shortened: as §1
# [22] = molecular target: Man(a1-2)Man(a1-3)[Man(a1-2)Man(a1-6)]Man(a1-6)[Man(a1-2)Man(a1-2)Man(a1-3)]Man(b1-4)GlcNAc(b1-4)GlcNAc
# Procedure, shortened: as §1
# [23] = molecular target: Man(a1-2)Man(a1-3)[Man(a1-6)]Man(a1-6)[Man(a1-2)Man(a1-3)]Man(b1-4)GlcNAc(b1-4)GlcNAc
# Procedure, shortened: as §1
# [24] = molecular target: Man(a1-2)Man(a1-6)[Man(a1-3)]Man(a1-6)[Man(a1-2)Man(a1-2)Man(a1-3)]Man
# Procedure, shortened: as §1
# [25] = molecular target: Man(a1-2)Man(a1-6)[Man(a1-3)]Man(a1-6)[Man(a1-2)Man(a1-2)Man(a1-3)]Man(b1-4)GlcNAc(b1-4)GlcNAc
# Procedure, shortened: as §1
# Man(a1-3)[Man(a1-6)]Man = molecular target: Man(a1-3)[Man(a1-6)]Man
# Procedure, shortened: as §1
# [26] = molecular target: Man(a1-3)[Man(a1-6)]Man(a1-6)[Man(a1-2)Man(a1-3)]Man(b1-4)GlcNAc(b1-4)GlcNAc
# Procedure, shortened: as §1
binder,measurement,setting,value
B1,glycan array binding signal (z-score),[1],-0.739
same,glycan array binding signal (z-score),[2],-0.408
same,glycan array binding signal (z-score),[3],-0.853
same,glycan array binding signal (z-score),[4],0.767
same,glycan array binding signal (z-score),[5],0.624
same,glycan array binding signal (z-score),[6],-0.713
same,glycan array binding signal (z-score),GlcNAc(b1-3)GalNAc,-0.24
same,glycan array binding signal (z-score),GlcNAc(b1-3)Man,-0.774
same,glycan array binding signal (z-score),[7],-1.13
same,glycan array binding signal (z-score),[8],-1.09
same,glycan array binding signal (z-score),[9],-0.249
same,glycan array binding signal (z-score),[10],-0.268
same,glycan array binding signal (z-score),GlcNAc(b1-4)GlcNAc,0.138
same,glycan array binding signal (z-score),[11],0.051
same,glycan array binding signal (z-score),[12],-0.221
same,glycan array binding signal (z-score),[13],-0.342
same,glycan array binding signal (z-score),[14],0.016
same,glycan array binding signal (z-score),[15],-0.596
same,glycan array binding signal (z-score),GlcNAc(b1-6)GalNAc,1.42
same,glycan array binding signal (z-score),[16],0.017
same,glycan array binding signal (z-score),Kdn(a2-3)Gal(b1-3)GalNAc,0.802
same,glycan array binding signal (z-score),Kdn(a2-3)Gal(b1-3)GlcNAc,-0.302
same,glycan array binding signal (z-score),Kdn(a2-3)Gal(b1-4)Glc,2.27
same,glycan array binding signal (z-score),Kdn(a2-3)Gal(b1-4)GlcNAc,0.548
same,glycan array binding signal (z-score),[17],-0.067
same,glycan array binding signal (z-score),Kdn(a2-6)Gal(b1-4)GlcNAc,0.665
same,glycan array binding signal (z-score),[18],0.112
same,glycan array binding signal (z-score),[19],-0.081
same,glycan array binding signal (z-score),Man(a1-2)Man(a1-3)Man,-0.411
same,glycan array binding signal (z-score),[20],-0.925
same,glycan array binding signal (z-score),[21],-1.13
same,glycan array binding signal (z-score),[22],2.02
same,glycan array binding signal (z-score),[23],-1.48
same,glycan array binding signal (z-score),[24],-0.785
same,glycan array binding signal (z-score),[25],-1.21
same,glycan array binding signal (z-score),Man(a1-3)[Man(a1-6)]Man,1.49
same,glycan array binding signal (z-score),[26],1.23

# Part of the list above, tab-delimited.
binder	measurement	setting	value
B1	glycan array binding signal (z-score)	[11]	0.051
same	glycan array binding signal (z-score)	[24]	-0.785
